For this test the following is noted: after four years; women 45-59 years, mostly early postmenopausal; ALN 2.5 or 5 mg per day vs placebo (placebo loses bone mineral density); differences statistically significant.

Turning to `NCCCC(O)(P(=O)(O)O)P(=O)(O)O` [alendronate, 4-amino-1-hydroxybutylidene-1,1-bisphosphonic acid], the “signs of osteoporosis, as measured by decreases in bone mineral density” value is “not developing signs of osteoporosis”.
